Here are results for 1 molecule from article PMC8138011.

By UniProt entry, the sequences of proteins in these tests, tags left out.
UniProt P35998: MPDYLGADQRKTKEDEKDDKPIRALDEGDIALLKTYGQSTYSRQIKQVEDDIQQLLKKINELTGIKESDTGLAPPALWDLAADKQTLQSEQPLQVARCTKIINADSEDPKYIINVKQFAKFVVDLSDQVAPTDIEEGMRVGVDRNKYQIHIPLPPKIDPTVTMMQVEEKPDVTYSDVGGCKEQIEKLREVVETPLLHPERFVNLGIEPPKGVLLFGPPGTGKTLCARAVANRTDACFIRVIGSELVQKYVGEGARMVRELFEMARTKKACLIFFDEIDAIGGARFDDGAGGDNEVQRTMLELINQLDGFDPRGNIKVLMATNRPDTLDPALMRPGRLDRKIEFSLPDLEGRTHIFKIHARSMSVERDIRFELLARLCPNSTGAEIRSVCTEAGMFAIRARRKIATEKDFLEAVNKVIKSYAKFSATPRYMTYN

The target in this test is PSMC2 (proteasome 26 S subunit ATPase 2), Flag-labelled (UniProt P35998). Nature of the test: co-IP; GBC-SD cells overexpressing Flag-labelled PSMC2 or HA-labelled GNG4; immunocomplexes obtained with antibodies of Flag or HA and analysed with corresponding antibodies.

Results are given in words; binding and its absence hold for the method and conditions named. In cells and extracts the contact can be indirect. Some results given as binding are weak or reduced against the parent protein; the word gives no strength. Sequences can lack the tags named with a protein.

B1: GNG4 (G protein subunit gamma 4), HA-labelled (protein, UniProt P50150 1-75)
chain: MKEGMSNNSTTSISQARKAVEQLKMEACMDRVKVSQAAADLLAYCEAHVREDPLIIPVPASENPFREKKFFCTIL
Consider B1, for which the binding entry is given as “binds”.
